Laboratory results from article PMC12057046, “Elucidation of short linear motif-based interactions of the MIT and rhodanese domains of the ubiquitin-specific protease 8” (Biology Direct, 2025).
No constants are given. Whether binding was seen depends on the method and setting. Some entries that bind do so weakly or less than the wild type.

Chains of the proteins cited; added tags and fusions are not shown. Lines headed by an entry give the natural chain unless they say otherwise; changes in a name come on top. Residues count along the entry.
UniProt Q96QF0: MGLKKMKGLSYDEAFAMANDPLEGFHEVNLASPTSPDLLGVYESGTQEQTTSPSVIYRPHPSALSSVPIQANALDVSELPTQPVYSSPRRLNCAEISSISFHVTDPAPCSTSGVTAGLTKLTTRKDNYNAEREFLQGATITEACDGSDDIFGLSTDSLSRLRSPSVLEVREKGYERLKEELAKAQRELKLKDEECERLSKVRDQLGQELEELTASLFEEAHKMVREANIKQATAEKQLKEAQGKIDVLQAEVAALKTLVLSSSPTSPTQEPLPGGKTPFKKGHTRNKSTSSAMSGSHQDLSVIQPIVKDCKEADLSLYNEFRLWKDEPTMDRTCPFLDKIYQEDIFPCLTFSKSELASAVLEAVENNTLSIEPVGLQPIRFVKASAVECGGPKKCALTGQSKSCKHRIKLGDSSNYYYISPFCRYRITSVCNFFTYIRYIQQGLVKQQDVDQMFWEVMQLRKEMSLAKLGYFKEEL
UniProt P40818, residues 174-317: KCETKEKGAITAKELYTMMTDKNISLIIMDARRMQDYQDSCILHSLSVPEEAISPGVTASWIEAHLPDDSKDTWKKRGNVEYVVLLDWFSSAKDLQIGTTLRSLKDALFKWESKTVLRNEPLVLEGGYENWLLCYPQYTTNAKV

Assays:
Assay in all cases: peptide or protein array; SPOT array, cellulose-bound peptides; GST-tagged Rhodanese domain 150 µM in 5% skim milk in TBST overnight at 4 °C; detected with HRP-conjugated anti-GST antibody; both purified
[1] = target: T1, RAB3A interacting protein 82-95 peptide, cellulose-bound (SPOT array) (UniProt Q96QF0)
T1 sequence (peptide): QPVYSSPRRLNCAE

[2] = target: T2, SHANK3 351-365 peptide, cellulose-bound (SPOT array)
T2 sequence (peptide): SYAKRRRLAGPSGLA

[3] = target: T3, SHANK3 392-406 peptide, cellulose-bound (SPOT array)
T3 sequence (peptide): SLRSLPHQLLLQRLQ

binding [1]: binds weakly
binding [2]: binds weakly
binding [3]: binds weakly
Substance: GST-tagged USP8 rhodanese domain (174-317) (from UniProt P40818 174-317) (domain or fragment)
